System: DIV7 neurons
Assay: Metabolic flux experiment with U-13C-fructose in DIV7 neurons
Type: cell-based
Conditions: after OGD treatment, compared with the control group

SMILES: O=[13C]([13CH2]O)[13C@@H](O)[13C@H](O)[13C@H](O)[13CH2]O [U-13C-fructose]
- 13C labeling rate in PPP pathway metabolites ribose-5-phosphate and erythrose-4 phosphate: increases
- 13C labeling rate in TCA pathway metabolites oxaloacetic acid and citric acid: increases

From patent publication US11911477B2, “Use of fructose in preparing drug for treating ischemic injury” (Beihang University, priority 2021, dated 2024)
